Drawing on the supplement of paper PMC10849652, this text covers log2 fold change for 26 targets.

Chains of the proteins cited; added tags and fusions are not shown. Lines headed by an entry give the natural chain unless they say otherwise; changes in a name come on top.
UniProt P12318: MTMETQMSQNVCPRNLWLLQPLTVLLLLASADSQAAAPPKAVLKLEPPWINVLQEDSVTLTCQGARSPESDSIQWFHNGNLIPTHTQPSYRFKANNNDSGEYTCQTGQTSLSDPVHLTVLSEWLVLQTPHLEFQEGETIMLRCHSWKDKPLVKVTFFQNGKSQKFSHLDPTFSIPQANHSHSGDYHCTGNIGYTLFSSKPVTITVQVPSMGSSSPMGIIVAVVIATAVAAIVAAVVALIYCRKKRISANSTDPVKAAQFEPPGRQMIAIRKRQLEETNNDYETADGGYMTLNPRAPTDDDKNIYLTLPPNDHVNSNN
UniProt P16591: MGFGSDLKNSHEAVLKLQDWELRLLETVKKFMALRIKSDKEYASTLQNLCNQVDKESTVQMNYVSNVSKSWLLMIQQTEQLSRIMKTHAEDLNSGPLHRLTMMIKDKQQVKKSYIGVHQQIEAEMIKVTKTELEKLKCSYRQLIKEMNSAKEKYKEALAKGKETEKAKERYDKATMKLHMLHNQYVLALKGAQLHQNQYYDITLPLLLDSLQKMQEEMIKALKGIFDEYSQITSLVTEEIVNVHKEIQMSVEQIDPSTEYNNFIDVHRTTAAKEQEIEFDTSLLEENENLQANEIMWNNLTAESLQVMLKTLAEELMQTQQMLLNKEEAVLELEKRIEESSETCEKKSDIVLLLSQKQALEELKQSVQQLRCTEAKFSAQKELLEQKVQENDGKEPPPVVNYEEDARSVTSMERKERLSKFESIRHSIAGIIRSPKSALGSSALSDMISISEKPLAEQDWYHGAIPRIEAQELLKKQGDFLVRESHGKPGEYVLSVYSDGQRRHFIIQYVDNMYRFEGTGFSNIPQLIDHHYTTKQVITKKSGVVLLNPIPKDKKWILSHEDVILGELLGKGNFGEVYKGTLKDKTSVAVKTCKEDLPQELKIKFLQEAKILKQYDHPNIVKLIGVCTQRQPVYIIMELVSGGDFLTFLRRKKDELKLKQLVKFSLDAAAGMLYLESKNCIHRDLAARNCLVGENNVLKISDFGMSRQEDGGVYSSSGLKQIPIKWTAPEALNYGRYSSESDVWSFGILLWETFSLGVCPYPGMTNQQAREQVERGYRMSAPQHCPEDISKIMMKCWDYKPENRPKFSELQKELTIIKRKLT
UniProt Q9UKA2: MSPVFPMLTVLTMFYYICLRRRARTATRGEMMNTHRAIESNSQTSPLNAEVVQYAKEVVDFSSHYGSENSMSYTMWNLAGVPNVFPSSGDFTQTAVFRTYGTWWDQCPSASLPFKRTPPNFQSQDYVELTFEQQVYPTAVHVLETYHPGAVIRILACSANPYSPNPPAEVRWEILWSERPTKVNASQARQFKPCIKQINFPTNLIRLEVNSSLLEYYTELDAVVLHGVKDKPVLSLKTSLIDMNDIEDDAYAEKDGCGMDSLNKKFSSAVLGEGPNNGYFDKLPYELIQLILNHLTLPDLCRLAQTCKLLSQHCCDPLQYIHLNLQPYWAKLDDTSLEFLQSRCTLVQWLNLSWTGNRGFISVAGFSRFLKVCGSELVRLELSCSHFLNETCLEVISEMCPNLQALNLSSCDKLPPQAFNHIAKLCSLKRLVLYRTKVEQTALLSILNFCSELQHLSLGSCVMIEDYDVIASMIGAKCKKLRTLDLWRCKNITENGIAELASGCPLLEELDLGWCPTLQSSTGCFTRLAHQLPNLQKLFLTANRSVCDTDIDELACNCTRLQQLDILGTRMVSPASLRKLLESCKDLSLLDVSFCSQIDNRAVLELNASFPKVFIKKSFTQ
UniProt Q9NYF3: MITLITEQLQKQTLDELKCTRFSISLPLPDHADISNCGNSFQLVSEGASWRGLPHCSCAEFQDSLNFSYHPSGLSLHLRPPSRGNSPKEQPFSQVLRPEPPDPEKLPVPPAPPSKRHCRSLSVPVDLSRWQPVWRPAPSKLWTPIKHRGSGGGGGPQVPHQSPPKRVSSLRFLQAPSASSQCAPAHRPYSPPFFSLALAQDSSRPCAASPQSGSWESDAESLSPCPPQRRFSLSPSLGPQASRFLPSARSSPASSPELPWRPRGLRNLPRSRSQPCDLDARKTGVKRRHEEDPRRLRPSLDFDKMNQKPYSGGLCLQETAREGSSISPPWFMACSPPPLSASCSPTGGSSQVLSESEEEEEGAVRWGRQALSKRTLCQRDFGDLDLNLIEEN
UniProt A6ND36: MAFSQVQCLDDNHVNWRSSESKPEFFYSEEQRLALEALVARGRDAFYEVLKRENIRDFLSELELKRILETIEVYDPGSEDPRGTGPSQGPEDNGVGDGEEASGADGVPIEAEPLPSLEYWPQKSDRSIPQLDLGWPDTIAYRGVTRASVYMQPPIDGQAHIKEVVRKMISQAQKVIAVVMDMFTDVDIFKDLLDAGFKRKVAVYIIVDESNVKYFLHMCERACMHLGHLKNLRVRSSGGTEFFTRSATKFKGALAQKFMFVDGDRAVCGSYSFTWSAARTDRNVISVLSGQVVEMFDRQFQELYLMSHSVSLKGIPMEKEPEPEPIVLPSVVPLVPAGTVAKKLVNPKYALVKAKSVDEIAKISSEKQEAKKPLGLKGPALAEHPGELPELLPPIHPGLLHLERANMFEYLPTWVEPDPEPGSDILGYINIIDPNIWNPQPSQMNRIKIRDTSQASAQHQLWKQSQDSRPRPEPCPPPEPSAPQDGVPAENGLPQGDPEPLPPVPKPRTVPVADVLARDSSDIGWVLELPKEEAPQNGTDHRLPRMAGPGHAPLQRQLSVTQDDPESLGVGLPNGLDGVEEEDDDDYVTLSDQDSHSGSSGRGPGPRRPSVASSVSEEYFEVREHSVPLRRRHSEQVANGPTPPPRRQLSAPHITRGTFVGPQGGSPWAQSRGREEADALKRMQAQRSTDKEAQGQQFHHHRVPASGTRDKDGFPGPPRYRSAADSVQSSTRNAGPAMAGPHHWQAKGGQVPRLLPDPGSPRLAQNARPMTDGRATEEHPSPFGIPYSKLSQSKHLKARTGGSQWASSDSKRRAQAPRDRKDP
UniProt Q13045: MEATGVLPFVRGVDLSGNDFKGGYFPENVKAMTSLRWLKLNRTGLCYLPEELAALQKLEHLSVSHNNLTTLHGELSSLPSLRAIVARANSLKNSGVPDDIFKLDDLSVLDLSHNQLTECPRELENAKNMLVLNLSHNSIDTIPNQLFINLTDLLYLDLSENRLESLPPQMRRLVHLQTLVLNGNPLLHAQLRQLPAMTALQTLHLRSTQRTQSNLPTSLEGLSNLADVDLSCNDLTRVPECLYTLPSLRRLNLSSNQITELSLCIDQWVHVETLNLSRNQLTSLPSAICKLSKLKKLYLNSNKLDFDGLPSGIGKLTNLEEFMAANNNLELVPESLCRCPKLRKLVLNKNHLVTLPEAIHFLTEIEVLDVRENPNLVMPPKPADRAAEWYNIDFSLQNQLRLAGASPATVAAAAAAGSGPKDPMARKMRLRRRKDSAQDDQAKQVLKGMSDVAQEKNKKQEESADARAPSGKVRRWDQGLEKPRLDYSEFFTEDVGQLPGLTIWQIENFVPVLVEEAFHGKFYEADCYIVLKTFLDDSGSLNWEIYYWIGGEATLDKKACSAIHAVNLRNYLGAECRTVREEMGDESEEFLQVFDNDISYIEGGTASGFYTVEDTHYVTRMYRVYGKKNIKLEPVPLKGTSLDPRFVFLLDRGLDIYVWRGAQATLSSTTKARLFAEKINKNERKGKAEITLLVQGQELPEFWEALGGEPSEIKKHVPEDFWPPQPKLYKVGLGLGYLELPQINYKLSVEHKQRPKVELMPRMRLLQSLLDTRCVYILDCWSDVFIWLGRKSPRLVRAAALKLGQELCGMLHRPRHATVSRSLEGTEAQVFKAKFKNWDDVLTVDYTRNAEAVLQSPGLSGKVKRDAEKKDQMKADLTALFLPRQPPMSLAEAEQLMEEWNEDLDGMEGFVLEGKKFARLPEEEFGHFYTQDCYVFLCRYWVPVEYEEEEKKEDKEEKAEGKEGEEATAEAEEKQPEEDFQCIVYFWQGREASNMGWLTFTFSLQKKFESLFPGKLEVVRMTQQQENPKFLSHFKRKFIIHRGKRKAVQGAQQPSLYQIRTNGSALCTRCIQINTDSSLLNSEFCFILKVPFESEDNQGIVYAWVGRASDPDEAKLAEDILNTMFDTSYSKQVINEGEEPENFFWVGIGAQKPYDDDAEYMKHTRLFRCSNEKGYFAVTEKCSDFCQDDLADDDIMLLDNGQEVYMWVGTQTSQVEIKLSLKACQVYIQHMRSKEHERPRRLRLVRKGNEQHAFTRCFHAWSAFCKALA
UniProt Q96RU3: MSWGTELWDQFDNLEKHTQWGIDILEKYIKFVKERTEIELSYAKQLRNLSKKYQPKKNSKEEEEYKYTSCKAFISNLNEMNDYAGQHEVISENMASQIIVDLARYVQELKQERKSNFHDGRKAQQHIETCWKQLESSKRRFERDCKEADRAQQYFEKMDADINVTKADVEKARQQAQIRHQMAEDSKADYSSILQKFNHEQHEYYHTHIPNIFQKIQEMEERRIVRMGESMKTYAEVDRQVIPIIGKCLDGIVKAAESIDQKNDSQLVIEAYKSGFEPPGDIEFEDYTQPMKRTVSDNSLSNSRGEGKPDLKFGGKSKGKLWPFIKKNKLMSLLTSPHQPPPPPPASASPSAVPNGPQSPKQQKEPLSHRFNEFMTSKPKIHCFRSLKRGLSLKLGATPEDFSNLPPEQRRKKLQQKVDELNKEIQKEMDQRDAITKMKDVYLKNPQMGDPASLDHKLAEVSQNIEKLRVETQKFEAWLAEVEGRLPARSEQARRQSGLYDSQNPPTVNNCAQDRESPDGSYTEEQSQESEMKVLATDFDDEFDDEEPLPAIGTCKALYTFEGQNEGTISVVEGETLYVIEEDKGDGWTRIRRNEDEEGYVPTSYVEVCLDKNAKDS
UniProt Q9Y2H6: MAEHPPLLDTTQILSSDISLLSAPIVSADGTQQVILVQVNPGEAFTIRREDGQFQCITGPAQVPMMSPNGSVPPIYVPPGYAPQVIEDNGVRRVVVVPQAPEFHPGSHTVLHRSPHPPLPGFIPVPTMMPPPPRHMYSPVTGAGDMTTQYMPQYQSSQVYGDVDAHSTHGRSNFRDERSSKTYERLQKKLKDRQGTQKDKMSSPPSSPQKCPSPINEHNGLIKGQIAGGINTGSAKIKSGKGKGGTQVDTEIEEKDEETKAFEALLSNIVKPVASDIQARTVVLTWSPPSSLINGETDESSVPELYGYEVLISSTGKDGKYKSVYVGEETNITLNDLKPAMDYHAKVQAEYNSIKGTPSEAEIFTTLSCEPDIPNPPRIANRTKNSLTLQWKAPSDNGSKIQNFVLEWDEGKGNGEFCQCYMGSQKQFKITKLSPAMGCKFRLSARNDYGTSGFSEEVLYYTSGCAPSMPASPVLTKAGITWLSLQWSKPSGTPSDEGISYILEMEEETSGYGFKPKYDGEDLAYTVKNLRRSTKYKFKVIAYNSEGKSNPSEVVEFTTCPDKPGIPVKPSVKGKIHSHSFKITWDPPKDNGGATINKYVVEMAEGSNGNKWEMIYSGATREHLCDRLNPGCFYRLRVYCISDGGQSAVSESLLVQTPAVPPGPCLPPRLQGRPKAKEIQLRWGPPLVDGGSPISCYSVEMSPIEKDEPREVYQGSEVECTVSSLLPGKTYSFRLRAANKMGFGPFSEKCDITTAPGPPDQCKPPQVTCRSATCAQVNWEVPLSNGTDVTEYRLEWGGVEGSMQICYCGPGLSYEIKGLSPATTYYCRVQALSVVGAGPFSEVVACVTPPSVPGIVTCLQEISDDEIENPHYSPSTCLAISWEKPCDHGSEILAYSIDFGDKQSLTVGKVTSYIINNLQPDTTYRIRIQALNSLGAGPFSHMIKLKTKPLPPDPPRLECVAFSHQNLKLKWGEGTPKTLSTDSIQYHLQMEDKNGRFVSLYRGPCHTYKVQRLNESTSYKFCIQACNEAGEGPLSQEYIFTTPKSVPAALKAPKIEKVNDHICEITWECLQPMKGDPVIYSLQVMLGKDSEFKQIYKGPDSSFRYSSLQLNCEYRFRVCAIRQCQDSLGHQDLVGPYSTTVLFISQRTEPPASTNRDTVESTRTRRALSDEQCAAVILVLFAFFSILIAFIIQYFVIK
UniProt Q14153: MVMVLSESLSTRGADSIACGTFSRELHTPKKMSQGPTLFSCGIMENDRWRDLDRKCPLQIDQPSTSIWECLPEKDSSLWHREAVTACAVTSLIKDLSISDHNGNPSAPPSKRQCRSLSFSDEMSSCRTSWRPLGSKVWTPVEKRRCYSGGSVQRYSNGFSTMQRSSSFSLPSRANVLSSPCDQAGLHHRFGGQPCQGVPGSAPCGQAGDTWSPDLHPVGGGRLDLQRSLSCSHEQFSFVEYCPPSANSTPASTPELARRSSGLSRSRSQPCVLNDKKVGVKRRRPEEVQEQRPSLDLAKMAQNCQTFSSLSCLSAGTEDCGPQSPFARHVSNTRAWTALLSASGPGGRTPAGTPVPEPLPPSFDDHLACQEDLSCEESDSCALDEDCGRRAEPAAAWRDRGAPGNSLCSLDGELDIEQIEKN

What all share (test): log2 fold change, soluble protein after heating vs DMSO (PISA); higher = thermal stabilisation; K562 cells, 10 uM, 30 min; active = over 0.2 and 3.5 SD of the protein, either way, in both replicates (recomputed)
Compound in assay [1]: C1=CC=C(C=C1)[C@H](COC2=CC3=C(C=C2)NC(=O)N3)NC(=O)C4=CC=CN(C4=O)CC5=CC(=C(C=C5)F)F
Summed up: (§1)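 K562 cells at 2×10^6 cells/mL were given 10 μM compound for 30 min. Aliquots then went through 3 min of heating across 48°C-58°C, were pooled, and were extracted in PBS with 0.5% NP-40 at 4°C, and the supernatant after 21,000xg for 90 min was quantified by TMTpro 16plex LC-MS/MS with channel sums equalised. Thermal stability relative to control samples, from duplicates, is given as log2 fold change.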

Compound in assay [2]: CC1=C(SC2=C1C(=N[C@H](C3=NN=C(N32)C)CC(=O)N)C4=CC=C(C=C4)Cl)C
The method in brief: as §1

Compound in assay [3]: CC1=C2C(=CC=C1)N=C(N(C2=O)C3=CC=CC=C3C)CN4C=NC5=C(N=CN=C54)N
Summed up:
as §1

Compound in assay [4]: c1ccc([C@@H]2C[C@H]2NC2CCNCC2)cc1
The method in brief: as §1

Compound in assay [5]: Cc1sc2c(c1C)C(c1ccc(Cl)cc1)=N[C@@H](CC(=O)OC(C)(C)C)c1nnc(C)n1-2
Summed up: as §1

The other results are listed elsewhere or left out.

Regarding FEZ2 isoform 2 (UniProt Q9UHY8), the log2 fold change was inactive: 0.081 in assay [1], inactive: 0.031 in assay [2], inactive: 0.148 in assay [3] and inactive: 0.113 in assay [4].
Turning to FBXW11 (UniProt Q9UKB1), the log2 fold change was inactive: 0.145 in assay [2], inactive: 0.022 in assay [3], inactive: -0.183 in assay [5] and inactive: -0.021 in assay [4].
In the case of FCGR2A (UniProt P12318), the log2 fold change in assay [1] was inactive: -0.091; in assay [3], inactive: 0.1; in assay [5], inactive: -0.02.
Consider FCHSD1 (UniProt Q86WN1), for which the log2 fold change in assay [2] is inactive: -0.154; in assay [4], inactive: 0.222.
On to FER (UniProt P16591), for which the log2 fold change in assay [3] is inactive: 0.382.
Same read-out and setting: for FBXL4 (UniProt Q9UKA2) the value was inactive: 0.061.
For FBXO44 (UniProt Q9H4M3), the figures for the log2 fold change in assay [1], in assay [2] and in assay [4] were inactive: -0.042, inactive: 0.067 and inactive: -0.062, respectively.
Regarding FAM53C (UniProt Q9NYF3), the log2 fold change is inactive: 0.083 in assay [2], inactive: -0.177 in assay [5] and inactive: 0.167 in assay [4].
Turning to FBXO11 isoform 5 (UniProt Q86XK2), the log2 fold change in assay [5] was inactive: 0.349.
The same measure, in the same setting: in the case of FBRSL1 (UniProt Q9HCM7) it was inactive: 0.076.
Take FAM83G (UniProt A6ND36): the log2 fold change in assay [3] is inactive: 0.192; in assay [5] it was inactive: 0.059.
Regarding FLCN (UniProt Q8NFG4), the log2 fold change in assay [2] was inactive: 0.13; in assay [3], inactive: 0.006; in assay [5], inactive: -0.085; in assay [4], inactive: -0.103.
As for FAT4 (UniProt Q6V0I7), the log2 fold change in assay [3] was inactive: 0.363; in assay [5], inactive: 0.106.
In the case of FANCL isoform 2 (UniProt Q9NW38), the log2 fold change in assay [2] is inactive: 0.138; in assay [3], inactive: -0.112; in assay [4], inactive: 0.156.
For FLII isoform 2 (UniProt Q13045), the values for the log2 fold change in assay [2], in assay [5] and in assay [4] were inactive: 0.011, inactive: -0.037 and inactive: -0.138, respectively.
For FAM222B (UniProt Q8WU58), the log2 fold change in assay [5] is inactive: 0.06.
On the same count and under the same terms, in the case of FNBP1 (UniProt Q96RU3) it was inactive: 0.091.
Turning to FAM98C (UniProt Q17RN3), the log2 fold change in assay [2] is inactive: -0.148; in assay [4], inactive: 0.091.
As to FNDC3A (UniProt Q9Y2H6), the log2 fold change in assay [5] was inactive: 0.272.
For FBH1 isoform 2 (UniProt Q8NFZ0), the values for the log2 fold change in assay [1], in assay [3] and in assay [5] were inactive: -0.124, inactive: 0.03 and inactive: 0.042, respectively.
Turning to FAT3 isoform 1 (UniProt Q8TDW7), the results for the log2 fold change in assay [1] and in assay [3] were inactive: 0.27 and inactive: 0.079, respectively.
For the target FAM219A (UniProt Q8IW50), the log2 fold change in assay [1] was inactive: 0.056; in assay [2], inactive: 0.043; in assay [5], inactive: 0.026; in assay [4], inactive: 0.073.
The matching figures for FBXL8 (UniProt Q96CD0): inactive: -0.14, inactive: 0.252, inactive: 0.148 and inactive: -0.028.
With FIZ1 (UniProt Q96SL8), the log2 fold change was inactive: -0.297 in assay [2], inactive: -0.097 in assay [3] and inactive: 0.044 in assay [4].
For the target FAM53B (UniProt Q14153), in assay [3], the log2 fold change was inactive: 0.134.
On the same count and under the same terms, for FLT1 (UniProt P17948) the value was inactive: 0.298.
